# Data as given in PubChem BioAssay AID652243 (Drosophila RNAi Screening Center, 2013).
# Screen: 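Fly genes required for human androgen receptor driven transcription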 (primary screen)
# System: Drosophila S2R+ cells
# Reagents: long dsRNA against Drosophila genes
# Timing: 72 h (48 h, then 24 h hormone)
# Treatment: synthetic androgen R1881 at 10 nM for 24 h
# Read-out: 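Firefly light from an androgen-responsive reporter and Renilla control light per well, raw and unnormalised, for each of two replicates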
# Reading the numbers: firefly reporter light: higher = more light from androgen-responsive reporter; Renilla control light: higher = more constitutive control signal (cell number, transfection)
# Active means: 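Across duplicate plates, a knock-down whose log firefly/Renilla ratio shifted a set fold down or up from the GFP/LacZ control mean was a hit; the downward cut appears as both 1.5 and 3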
# Calls: active = hit: reporter lowered or raised; inactive = no hit
# In all, the deposit lists about 24,000 reagents; this is a random part of those that have a named target and a result. Of all reagents, 246 (1%) were called active. 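Plates not normalised; calls are printed but the firefly/Renilla ratio behind them is not deposited; fold cut for lowering reported inconsistently.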 Raw values are not corrected between plates. A plus sign joins genes that one reagent is predicted to hit. Not given: the amount of reagent.
target,PubChem SID,"firefly reporter light, replicate 1","firefly reporter light, replicate 2","Renilla control light, replicate 1","Renilla control light, replicate 2",outcome
ND-24 (GeneID 32740),SID104199752,1.32e5,1.03e5,1.29e6,1.05e6,inactive
CG14659 (GeneID 40604),SID104192037,58105,81408,1.13e6,8.29e5,inactive
CG12590 (GeneID 40618),SID104192008,44611,90883,1.38e6,1.49e6,inactive
CG10194 (GeneID 35231),SID104181817,9.51e5,5.93e5,2.16e6,2.01e6,inactive
brv1 (GeneID 40116),SID104190868,1.09e5,1.54e5,1.69e6,1.82e6,inactive
Membrin (GeneID 38614),SID104190240,1.42e5,1.10e5,1.91e6,2.01e6,inactive
Ms (GeneID 44324),SID104195833,1.77e5,1.88e5,8.55e5,1.04e6,inactive
Ms (GeneID 44324),SID104208318,4.72e5,3.46e5,1.38e6,1.26e6,inactive
Sytalpha (GeneID 35068),SID104182661,2.04e5,2.06e5,2.25e6,2.43e6,inactive
MtnC (GeneID 42416),SID104202238,5.45e5,8.75e5,1.41e6,2.07e6,inactive
CG15020 (GeneID 38544),SID104188266,97969,80052,9.95e5,1.44e6,inactive
Spps (GeneID 42882),SID104202563,5.67e5,7.18e5,1.12e6,1.11e6,inactive
Nelf-E (GeneID 38982),SID104190359,1.97e5,2.24e5,2.28e6,1.36e6,inactive
Nup107 (GeneID 34481),SID104181791,94907,1.39e5,1.14e6,1.45e6,inactive
Larp4B (GeneID 38399),SID104202558,6.53e5,5.62e5,7.49e5,4.75e5,inactive
Larp4B (GeneID 38399),SID104207955,4.55e5,3.90e5,1.14e6,1.14e6,inactive
rush (GeneID 31105),SID104198360,1.73e5,1.37e5,1.23e6,1.05e6,inactive
TpnC73F (GeneID 39916),SID104191099,2.96e5,2.44e5,2.06e6,1.85e6,inactive
DIP-delta (GeneID 5740816),SID104190006,1.88e5,1.56e5,1.70e6,1.61e6,inactive
DIP-delta (GeneID 5740816),SID104190242,3.06e5,2.63e5,2.94e6,2.37e6,inactive
TP53INP (GeneID 38543),SID104187970,1.75e5,1.79e5,2.22e6,1.93e6,inactive
TP53INP (GeneID 38543),SID104201986,1.05e6,8.93e5,1.11e6,9.40e5,inactive
TP53INP (GeneID 38543),SID104204182,8.65e5,1.25e6,8.95e5,1.13e6,inactive
Ldaf1 (GeneID 326240),SID104197755,1.51e5,98043,1.11e6,7.82e5,inactive
Ldaf1 (GeneID 326240),SID104204404,5.23e5,4.92e5,9.74e5,9.47e5,inactive
CG9356 (GeneID 41122),SID104196268,1.10e5,1.93e5,5.32e5,6.36e5,inactive
CG18787 + CG18789,SID104203540,6.07e5,7.66e5,5.72e5,7.85e5,inactive
Cpr49Ag (GeneID 36353),SID104186995,4.58e5,3.33e5,2.45e6,2.42e6,inactive
Cpr49Ag (GeneID 36353),SID104207156,4.51e5,3.52e5,1.72e6,1.62e6,inactive
CG14195 (GeneID 32911),SID104199342,1.42e5,84940,4.55e5,3.49e5,inactive
velo (GeneID 38748),SID104188633,20282,14642,1.18e5,1.19e5,inactive
velo (GeneID 38748),SID104189490,1.05e6,1.25e6,1.40e6,1.96e6,inactive
velo (GeneID 38748),SID104206041,3.04e5,3.03e5,2.72e5,4.72e5,inactive
B52 (GeneID 41670),SID104193913,5.99e5,5.40e5,1.93e6,1.71e6,inactive
B52 (GeneID 41670),SID104204028,7.07e5,7.60e5,1.07e6,1.07e6,inactive
CG32984 (GeneID 34218),SID104201306,1.34e6,8.36e5,2.57e6,1.95e6,inactive
CG32984 (GeneID 34218),SID104207801,3.67e5,4.46e5,1.64e6,1.79e6,inactive
CG32984 (GeneID 34218),SID104216671,3.74e5,5.62e5,1.24e6,1.64e6,inactive
CG4627 (GeneID 36457),SID104186665,2.78e5,2.65e5,1.39e6,1.63e6,inactive
Obp19c (GeneID 33039),SID104200320,2.36e5,1.12e5,7.08e5,3.11e5,inactive
msd5 (GeneID 38156),SID104188352,44961,1.01e5,6.66e5,7.28e5,inactive
msd5 (GeneID 38156),SID104204950,2.45e5,2.69e5,4.86e5,6.36e5,inactive
CG44838 (GeneID 39099),SID104190163,6.86e5,5.58e5,1.31e6,1.29e6,inactive
CG44838 (GeneID 39099),SID104207345,5.39e5,4.32e5,8.99e5,7.89e5,inactive
CG31099 (GeneID 326117),SID104194044,1.03e5,1.61e5,2.08e6,1.83e6,inactive
CG31099 (GeneID 326117),SID104202969,8.29e5,5.69e5,1.07e6,1.17e6,inactive
CG15022 (GeneID 38549),SID104188268,1.57e5,1.69e5,8.67e5,9.93e5,inactive
CG15022 (GeneID 38549),SID104203625,7.52e5,7.52e5,8.27e5,8.12e5,inactive
Or94a (GeneID 42711),SID104196564,2.42e5,1.52e5,1.99e6,1.94e6,inactive
Max (GeneID 40095),SID104191010,58394,42092,8.83e5,6.21e5,inactive
CG34301 (GeneID 5740866),SID104216400,9.82e5,9.57e5,1.94e6,2.01e6,inactive
Ptp61F (GeneID 38160),SID104188475,83884,67638,1.07e6,7.16e5,inactive
Ptp61F (GeneID 38160),SID104207263,6.32e5,7.33e5,1.35e6,1.32e6,inactive
Ptp61F (GeneID 38160),SID104214578,,,,,inactive
galla-1 (GeneID 246485),SID104185779,84476,1.30e5,2.17e6,2.26e6,inactive
sunn (GeneID 326196),SID104201346,4.35e5,3.87e5,1.42e6,1.53e6,inactive
Claspin (GeneID 326205),SID104188100,5.42e5,3.47e5,2.70e6,3.39e6,inactive
Cyp313a1 (GeneID 41759),SID104196416,1.65e5,2.63e5,2.46e6,3.08e6,inactive
Cyp313a1 (GeneID 41759),SID104207356,3.90e5,4.16e5,1.08e6,1.28e6,inactive

Not a retest: an excerpt of the list.
target,PubChem SID,"firefly reporter light, replicate 1","firefly reporter light, replicate 2","Renilla control light, replicate 1","Renilla control light, replicate 2",outcome
velo (GeneID 38748),SID104188633,20282,14642,1.18e5,1.19e5,inactive
velo (GeneID 38748),SID104189490,1.05e6,1.25e6,1.40e6,1.96e6,inactive
velo (GeneID 38748),SID104206041,3.04e5,3.03e5,2.72e5,4.72e5,inactive
B52 (GeneID 41670),SID104193913,5.99e5,5.40e5,1.93e6,1.71e6,inactive
B52 (GeneID 41670),SID104204028,7.07e5,7.60e5,1.07e6,1.07e6,inactive
CG32984 (GeneID 34218),SID104201306,1.34e6,8.36e5,2.57e6,1.95e6,inactive
CG32984 (GeneID 34218),SID104207801,3.67e5,4.46e5,1.64e6,1.79e6,inactive
CG32984 (GeneID 34218),SID104216671,3.74e5,5.62e5,1.24e6,1.64e6,inactive
